PubChem BioAssay AID1224828 – NIAID | 2016
Shown is an unselected part of about 17,000 reagents. Of all reagents, 762 (4.5%) got an active call. 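Active calls include both raised and lowered p65 entry, mostly lowered; wells with fewer than 50 cells lack a z-score.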 Raw values are not corrected between plates.

- Test: 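Find genes required for NF-kappaB p65 moving into the nucleus after LPS in mouse macrophages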 (primary screen)
- Cell system: mouse RAW264.7 G9 macrophage reporter cells (GFP-p65, Tnf promoter-mCherry)
- Knock-down reagent: siRNA pool against mouse genes, 100 nM
- Timing: 2 days siRNA transfection, then 40 min LPS before fixation
- Treatment: LPS (Salmonella minnesota R595) at 10 ng/ml
- Read-out: 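Microscopy ratio of nuclear to perinuclear-ring GFP-p65 signal, scaled to the plate median; gene score is the average of two replicate robust z-scores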
- Reading the numbers: p65 translocation robust z-score: higher = more nuclear NF-kappaB p65 after LPS than the plate median; nuclear/cytoplasmic p65 ratio: higher = more nuclear NF-kappaB p65
- Hit rule: 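Active if robust z is above 3.3 (negative regulators) or below -1.56, the Tlr4 control median (positive regulators); activity score 50 or more; control wells not called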
- Meaning of the calls: active = hit (p65 shift raised or lowered); inactive = no clear change

For C87436 [SID315478965], the entry reads p65 translocation robust z-score 0.63; nuclear/cytoplasmic p65 ratio, rep 1 = 1.67; nuclear/cytoplasmic p65 ratio, rep 2 = 1.9; low cell count flag enough cells to score; inactive.
Mynn [SID315475713] gave p65 translocation robust z-score 0.81; nuclear/cytoplasmic p65 ratio, rep 1 = 1.93; nuclear/cytoplasmic p65 ratio, rep 2 = 1.7; low cell count flag enough cells to score; inactive.
Ago3 [SID315477846] gave p65 translocation robust z-score 0.92; nuclear/cytoplasmic p65 ratio, rep 1 = 1.61; nuclear/cytoplasmic p65 ratio, rep 2 = 1.46; low cell count flag enough cells to score; inactive.
After knock-down of Ern2 [SID315470480], the screen gave p65 translocation robust z-score -0.26; nuclear/cytoplasmic p65 ratio, rep 1 = 1.59; nuclear/cytoplasmic p65 ratio, rep 2 = 1.39; low cell count flag enough cells to score; inactive.
Cyp2a4 [SID315466223] gave p65 translocation robust z-score -0.96; nuclear/cytoplasmic p65 ratio, rep 1 = 1.4; nuclear/cytoplasmic p65 ratio, rep 2 = 1.2; low cell count flag enough cells to score; inactive.
Knock-down of Xrcc2 [SID315471787] gave: p65 translocation robust z-score 0.47; nuclear/cytoplasmic p65 ratio, rep 1 = 1.6; nuclear/cytoplasmic p65 ratio, rep 2 = 1.55; low cell count flag enough cells to score; inactive.
For Pcdhga1 [SID315475941], the values are p65 translocation robust z-score -0.11; nuclear/cytoplasmic p65 ratio, rep 1 = 1.38; nuclear/cytoplasmic p65 ratio, rep 2 = 1.27; low cell count flag enough cells to score; inactive.
Or4a81 [SID315480147] scored p65 translocation robust z-score 1.1; nuclear/cytoplasmic p65 ratio, rep 1 = 1.73; nuclear/cytoplasmic p65 ratio, rep 2 = 1.61; low cell count flag enough cells to score; inactive.
After knock-down of Rpl35 [SID315472472], the screen gave p65 translocation robust z-score 0.38; nuclear/cytoplasmic p65 ratio, rep 1 = 1.43; nuclear/cytoplasmic p65 ratio, rep 2 = 1.26; low cell count flag enough cells to score; inactive.
Galp [SID315479014] showed nuclear/cytoplasmic p65 ratio, rep 1 = 1.15; nuclear/cytoplasmic p65 ratio, rep 2 = 1.21; low cell count flag fewer than 50 cells per well; well left out of scoring; inactive.
For Syt9 [SID315472023], the values are nuclear/cytoplasmic p65 ratio, rep 1 = 1.24; nuclear/cytoplasmic p65 ratio, rep 2 = 1; low cell count flag fewer than 50 cells per well; well left out of scoring; inactive.
With knock-down of Acly [SID315476418] the results were p65 translocation robust z-score -1; nuclear/cytoplasmic p65 ratio, rep 1 = 1.4; nuclear/cytoplasmic p65 ratio, rep 2 = 1.58; low cell count flag enough cells to score; inactive.
For Polr1f [SID315470669] the deposit lists p65 translocation robust z-score 2.66; nuclear/cytoplasmic p65 ratio, rep 1 = 1.74; nuclear/cytoplasmic p65 ratio, rep 2 = 1.49; low cell count flag enough cells to score; inactive.
After knock-down of Col6a2 [SID315466064], the record shows p65 translocation robust z-score -0.51; nuclear/cytoplasmic p65 ratio, rep 1 = 1.44; nuclear/cytoplasmic p65 ratio, rep 2 = 1.27; low cell count flag enough cells to score; inactive.
Vmn1r35 [SID315477274] scored p65 translocation robust z-score 0.83; nuclear/cytoplasmic p65 ratio, rep 1 = 1.48; nuclear/cytoplasmic p65 ratio, rep 2 = 1.34; low cell count flag enough cells to score; inactive.
Against Sirpb1a [SID315481404] the deposit lists p65 translocation robust z-score -1.02; nuclear/cytoplasmic p65 ratio, rep 1 = 1.43; nuclear/cytoplasmic p65 ratio, rep 2 = 1.49; low cell count flag enough cells to score; inactive.
Silencing of Uqcc1 [SID315471354] resulted in: p65 translocation robust z-score -0.46; nuclear/cytoplasmic p65 ratio, rep 1 = 1.53; nuclear/cytoplasmic p65 ratio, rep 2 = 1.56; low cell count flag enough cells to score; inactive.
For Get4 [SID315473121], the entry reads p65 translocation robust z-score -0.61; nuclear/cytoplasmic p65 ratio, rep 1 = 1.4; nuclear/cytoplasmic p65 ratio, rep 2 = 1.42; low cell count flag enough cells to score; inactive.
Slc49a4 [SID315478327] gave p65 translocation robust z-score 0.23; nuclear/cytoplasmic p65 ratio, rep 1 = 1.48; nuclear/cytoplasmic p65 ratio, rep 2 = 1.43; low cell count flag enough cells to score; inactive.
For Tgfbr3 [SID315469695] the deposit lists p65 translocation robust z-score -0.52; nuclear/cytoplasmic p65 ratio, rep 1 = 1.46; nuclear/cytoplasmic p65 ratio, rep 2 = 1.43; low cell count flag enough cells to score; inactive.
Silencing of Htr1d [SID315467338] gave: p65 translocation robust z-score -0.23; nuclear/cytoplasmic p65 ratio, rep 1 = 1.5; nuclear/cytoplasmic p65 ratio, rep 2 = 1.52; low cell count flag enough cells to score; inactive.
